Data reported in US20040087633A1, “Methylidene oxazolidinone compound and preparation method thereof” (Korea Institute of Science and Technology, priority 2002, published 2004).
≈ marks a conversion by molar mass, not a printed value. Where two headings read alike, the source gives them in different places.

Test system: S. aureus ATCC 29213
Assay: Anti-microbial activity test in vitro (agar dilution MIC)
Type: cell-based
Conditions: Staphylococcus aureus, read-out: Minimum inhibition concentration (MIC)
Method: Anti-microbial activity test in vitro
Strains were cultivated for 18 hours at 37° C. in Agar Dilution method using Mueller Hinton Agar, and then plane plates inoculated with the strains by diluting them two times gradually were aligned in a row. Minimum inhibition concentration (MIC, μg/ml) for the representative compounds of the present invention, Linezolid (LZD) and vancomycin (VAN) were decided through visual observation, and the results are shown in the following tables 2 and 3.

MIC (ATCC29213, S. aureus ATCC 29213, Agar Dilution method, Mueller Hinton Agar, 18 hours at 37° C.) [µg/mL]	Compound	MIC (ATCC29213, 18 h) [µg/mL]
4 (≈ 11.9 µM)	CC(=O)NC[C@H]1CN(c2ccc(N3CCOCC3)c(F)c2)C(=O)O1 [LZD, Linezolid, reference compound]	
	CN[C@H](CC(C)C)C(=O)N[C@H]1C(=O)N[C@@H](CC(N)=O)C(=O)N[C@H]2C(=O)N[C@H]3C(=O)N[C@H](C(=O)N[C@H](C(=O)O)c4cc(O)cc(O)c4-c4cc3ccc4O)[C@H](O)c3ccc(c(Cl)c3)Oc3cc2cc(c3O[C@@H]2O[C@H](CO)[C@@H](O)[C@H](O)[C@H]2O[C@H]2C[C@](C)(N)[C@H](O)[C@H](C)O2)Oc2ccc(cc2Cl)[C@H]1O [VAN, vancomycin, reference compound]	1 (≈ 0.69 µM)
